In PubChem BioAssay AID1671190 (National Center for Advancing Translational Sciences (NCATS), 2021):
“And” between values parts separate entries of the source, which are not always exact repeats. Identical values can stand only once. Screen size: about 580,000 compounds; about 6,100 (1.1%) were called active. Inconclusive results, whose numbers are uncertain, are shown with a selection of clear calls. Calls come from the whole dose curve; as a rule, active = well fitted inhibition curve with a large enough effect; inconclusive = small, poorly fitted or top-dose-only effect, or another doubt; inactive = no such curve, though single readings can be large or run the other way. A potency beside an inconclusive call is a rough fit, not a confirmed value.

By UniProt entry, the sequences of proteins in these tests, tags left out. Where a name states a change or a piece, a line headed by the entry shows the natural chain unless it says otherwise.
UniProt P18054: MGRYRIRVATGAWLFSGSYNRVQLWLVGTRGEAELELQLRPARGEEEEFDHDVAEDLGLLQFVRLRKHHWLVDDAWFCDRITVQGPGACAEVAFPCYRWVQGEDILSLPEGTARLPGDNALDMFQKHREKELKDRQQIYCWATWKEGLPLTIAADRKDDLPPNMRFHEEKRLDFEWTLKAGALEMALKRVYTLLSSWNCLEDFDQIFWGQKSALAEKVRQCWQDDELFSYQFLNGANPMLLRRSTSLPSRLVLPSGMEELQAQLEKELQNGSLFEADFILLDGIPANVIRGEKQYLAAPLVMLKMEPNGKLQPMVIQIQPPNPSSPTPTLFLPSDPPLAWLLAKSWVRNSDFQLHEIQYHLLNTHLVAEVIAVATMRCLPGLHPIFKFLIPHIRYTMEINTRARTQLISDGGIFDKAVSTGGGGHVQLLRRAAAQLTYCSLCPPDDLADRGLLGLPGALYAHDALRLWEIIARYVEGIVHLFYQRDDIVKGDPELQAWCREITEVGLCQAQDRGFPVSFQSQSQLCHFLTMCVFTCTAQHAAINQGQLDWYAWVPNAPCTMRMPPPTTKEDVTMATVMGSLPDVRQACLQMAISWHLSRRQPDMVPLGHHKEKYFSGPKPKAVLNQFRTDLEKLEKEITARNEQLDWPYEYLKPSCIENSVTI

What follows are molecules tested against Polyunsaturated fatty acid lipoxygenase ALOX12 (Homo sapiens) (UniProt P18054) (assay: Primary qHTS assay for inhibitors of human arachidonate 12S-lipoxygenase (ALOX12): Round 2). Details: purified 12hLO, xylenol orange hydroperoxide absorbance; activity change, negative = inhibition: at 108 µM (top of the series) unless noted.
Method in brief: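 Hydroperoxide product was detected by ferrous iron/xylenol orange as the 573 to 405 nm absorbance ratio. Arachidonic acid at 40 uM (final) was turned over for 30 min at room temperature by 150 nM human 12hLO, pH 7.0 Hepes buffer, after 15 min compound preincubation.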
% is set by controls: 0 for no effect and ±100 for the full control effect; potency is the fitted concentration of half-maximal effect.

| SMILES | Potency | activity change, negative = inhibition |
| --- | --- | --- |
| COc1ccc(C(=O)c2c(N)c(-c3nc(-c4ccc(OC)cc4)cs3)c3ccccn23)cc1 | inconclusive: 17.8 µM [inhibitor, full curve, poor fit] |  |
| Cc1cc(N2CCNC[C@@H]2C)ccc1N1CCN(Cc2ccccc2)[C@@H](C)C1 | inconclusive: 35.5 µM [inhibitor, partial curve] |  |
| Cc1ccc(Cl)cc1Nc1cc(Cl)c2nonc2c1[N+](=O)[O-] | inconclusive: 20 µM [inhibitor, full curve, poor fit] |  |
| CCOC(=O)c1cc(=O)cc(C(=O)OCC)o1 | inconclusive: 28.2 µM [inhibitor, partial curve, poor fit] |  |
| COc1ccc(O)c(C=Nc2cc(NC(C)=O)c(Cl)cc2Cl)c1 | inactive |  |
| O=C(Cc1cccc2ccccc12)Nc1ccc(O)cc1C(=O)O | inconclusive: 39.8 µM [inhibitor, partial curve, poor fit] |  |
| CCc1nc(SCC(=O)Nc2cccc(OC)c2)c2c3c(sc2n1)COC(C)(C)C3 | inconclusive: 126 µM [inhibitor, partial curve, poor fit] |  |
| O=C(/C(Cl)=C/NCc1ccccn1)C(F)(F)F | inconclusive: 35.5 µM [inhibitor, partial curve] |  |
| O=C(Nc1nnc(SCc2cccnc2)s1)C1CC(=O)N(c2ccc(F)cc2)C1 (centres undefined) | inconclusive: 50.1 µM [inhibitor, partial curve, poor fit] |  |
| CCCCC[C@@H]1C=C(C(=O)O)[C@H](c2ccc(C)cc2)N1S(=O)(=O)c1ccc(C)cc1 | inconclusive: 39.8 µM [inhibitor, partial curve, poor fit] |  |
| CN(C)c1cccc(-c2cc3c(cn2)CN(Cc2ccncc2)CCN3)c1 | inactive |  |
| O=C(NCC(c1ccccc1)c1c[nH]c2ccccc12)c1ccccc1 (centres undefined) | inconclusive: 89.1 µM [inhibitor, single point] |  |
| CCCCCC[n+]1ccccc1/C=C/c1ccc(N(C)C)cc1 | inconclusive: 28.2 µM [inhibitor, partial curve] |  |
| Cc1ccc(N(CC(O)CN2CCCC2)S(=O)(=O)c2ccc(C)cc2)cc1 (centres undefined) | inactive |  |
| O=Cc1ccc(/C=C2\c3ccccc3C(=O)N2c2ccccc2)o1 | inconclusive: 50.1 µM [inhibitor, partial curve, poor fit] |  |
| Cn1cccc1CN1CCC2(CN[S+](=O)([O-])c3ccccc3N2)C1 (centres undefined) | inactive |  |
| Cc1ccc(NC(=O)CCc2c[nH]c3ccccc23)cc1 | inactive |  |
| CCOC(=O)/C=C/C(=O)OCC(=O)N1CCN(C(=O)c2ccco2)CC1 | inconclusive: 14.1 µM [inhibitor, partial curve, poor fit] |  |
| Cc1cc(C(=O)N2C[C@H]3CN(C4CCOCC4)C[C@@]3(C(=O)O)C2)n[nH]1 | inconclusive: 8.91 µM [inhibitor, full curve] |  |
| CCC(c1cccs1)N1C(=O)[C@H]2CN(S(=O)(=O)c3ccc(F)cc3F)C[C@H]2C1=O (some centres undefined) | inactive |  |
| O=C(NC1CCSc2ccccc21)c1ccc(Cl)c(S(=O)(=O)N2CCOCC2)c1 (centres undefined) | inconclusive: 141 µM [inhibitor, partial curve, poor fit] |  |

| SMILES | Potency | activity change, negative = inhibition |
| --- | --- | --- |
| COc1cccc(CNS(=O)(=O)c2ccc3c(c2)oc(=O)n3C)c1 | inconclusive: 35.5 µM [inhibitor, full curve, poor fit] |  |
| Fc1ccc(-c2nc3c(Cl)cc(C(F)(F)F)cn3c2Cc2cccc(F)c2)cc1 | inconclusive: 112 µM [inhibitor, single point] |  |
| CN(Cc1ccc(C2CCCCO2)s1)CC1CCN(CCc2ccc(F)cc2)CC1 (centres undefined) | inconclusive: 35.5 µM [inhibitor, partial curve, poor fit] |  |
| Cc1nccc(-c2cccc(NC(=O)c3nccnc3N)c2)n1 | inactive |  |
| CCN1C(=O)CCc2cc(NS(=O)(=O)c3c(C)cc(C)cc3C)ccc21 | inconclusive: 39.8 µM [inhibitor, partial curve, poor fit] |  |
| OCC1(CCOc2ccccc2)CCN(Cc2cc(Cl)ccc2O)CC1 | inconclusive: 39.8 µM [inhibitor, partial curve, poor fit] |  |
| FC(F)Oc1ccc(/C=N/n2c(Cc3ccc(Br)cc3)n[nH]c2=S)cc1 | inconclusive: 39.8 µM [inhibitor, partial curve, poor fit] |  |
| COc1ccc(NC(=O)c2c(NC(=O)c3ccncc3)sc3c2CCC(C(C)(C)C)C3)cc1 (centres undefined) | inconclusive: 50.1 µM [inhibitor, partial curve, poor fit] |  |
| CCOC(=O)C1CCC(CNC(=O)N2CCCC2c2ccc(OC)cc2)CC1 (centres undefined) | inactive |  |
| O=C(CSc1nc(NS(=O)(=O)c2ccccc2)cc(=O)[nH]1)Nc1ccccc1C(F)(F)F | inconclusive: 50.1 µM [inhibitor, partial curve, poor fit] |  |
| Cc1noc(C)c1-c1nccc(N2CCNCC2)n1 | inconclusive: 35.5 µM [inhibitor, partial curve] |  |
| CC(C)NC(=O)C(C)Sc1nc2ccc(F)cc2c(=O)[nH]1 (centres undefined) | inconclusive: 89.1 µM [inhibitor, single point] |  |
| CN(C)CCNC(=O)c1nc2nc(-c3ccccc3)c(-c3ccc(Cl)cc3)cc2n1C | inconclusive: 63.1 µM [inhibitor, partial curve] |  |
| CC1(C)C(N(O)C(=O)Nc2ccc(Cl)cc2)N(c2ccc(Cl)cc2)C(=O)N1CC(=O)NN (centres undefined) | inconclusive: 50.1 µM [inhibitor, partial curve, poor fit] |  |
| COc1ccc(S(=O)(=O)N2CCN(C(=O)CC3CC4CCC3C4)CC2)cc1 (centres undefined) | inconclusive: 112 µM [inhibitor, single point] |  |
| Cc1ccc(-c2nn(-c3cccc(F)c3)cc2CN2CCN(c3ccccn3)CC2)o1 | active: 8.91 µM |  |
| Cc1cccnc1NC(=O)COc1ccc2c(=O)c(Oc3ccccc3)c(C)oc2c1 | inactive |  |
| COC(=O)[C@@]1(Cc2ccc(F)cc2)[C@H]2c3cc(C(=O)N(C)C)n(Cc4ccsc4Br)c3C[C@H]2CN1C(=O)c1ccccc1 | inactive |  |
| CC(=O)SC[C@@H](Cc1ccccc1)C(=O)NCC(=O)OCc1ccccc1 |  | inactive: -8.54% [at 22.9 µM] |
| Cc1cc(C)n(-c2nc(-c3ccc(Cl)c(Cl)c3)cs2)n1 | inactive |  |
| CCN(Cc1nccn1C)C(=O)c1coc(COc2ccc3c(c2)OCO3)n1 | inactive |  |
| CCCCOc1ccccc1-c1ccccc1CN1[C@@H](C(C)C)COCCS1(=O)=O | inconclusive: 44.7 µM [inhibitor, partial curve, poor fit] |  |

| SMILES | Potency | activity change, negative = inhibition |
| --- | --- | --- |
| N#Cc1ccc(C(=O)N2CCN(S(=O)(=O)c3ccc(Cl)s3)CC2)cc1 | inconclusive: 35.5 µM [inhibitor, single point] |  |
| COc1ccc(C2C(C(C)=O)=C(C)Nc3ncnn32)cc1 (centres undefined) | inconclusive: 25.1 µM [inhibitor, single point] |  |
| CCN(CC)C(=S)NC(=O)Cc1ccccc1 | inactive |  |
| O=C(NCc1ccncc1)c1cn(C2CNC2)nn1 | inconclusive: 3.98 µM [inhibitor, full curve] |  |
| CC(Oc1ccccc1)c1ccnc(N)n1 (centres undefined) | inactive |  |
| NCCCNC(=S)NCCCN(Cc1ccc(Cl)cc1)c1ccc(Br)cn1 | active: 39.8 µM |  |
| COCCCNc1ncnc2c1CN(C1CCCNC1)C(=O)CN2C (centres undefined) | inconclusive: 8.91 µM [inhibitor, full curve, poor fit] |  |
| O=C(CCCN1C(=O)c2cccnc2C1=O)N1CC(=O)N(CCc2ccccc2)C(=O)C1 | inconclusive: 35.5 µM [inhibitor, single point] |  |
| Cc1ccc2c(C)c(C(=O)N(C)C(C)c3ccon3)oc2c1C (centres undefined) | inconclusive: 126 µM [inhibitor, single point] |  |
| CCN(Cc1cccc(OCCO)c1)CC1CCCN(CCc2cccc(OC)c2)C1 (centres undefined) | inconclusive: 63.1 µM [inhibitor, partial curve, poor fit] |  |
| Cc1ccc(C(=O)/C=C2\NCCNC2=O)cc1 | inconclusive: 20 µM [inhibitor, partial curve, poor fit] |  |
| CC(=O)/C(C#N)=C1\NC(=O)C(Cc2ccc(C)c(Cl)c2)S1 (centres undefined) | inconclusive: 7.08 µM [inhibitor, full curve, poor fit] |  |
| Cc1ccc(C(=O)NNC(=O)CSc2nnc(CNc3ccc(F)cc3)n2C)cc1 | inactive |  |
| CCn1c(-c2nonc2N)nc2cncc(CNC3CCNCC3)c21 | inconclusive: 7.69 µM [inhibitor, full curve] |  |
| O=C1Nc2ccc(Cl)cc2/C1=C/C1CC=CCC1 (centres undefined) | inconclusive: 50.1 µM [inhibitor, partial curve, poor fit] |  |
| O=C(Nc1ccc(N2CCOCC2)c(S(=O)(=O)Nc2ccccc2Cl)c1)c1ccc(F)cc1 | inconclusive: 50.1 µM [inhibitor, full curve, poor fit] |  |
| COc1ccc(C(CCN2CCCC(C)C2)c2c(OC)cc(OC)c3c(-c4ccccc4)cc(=O)oc23)cc1 (centres undefined) | inconclusive: 50.1 µM [inhibitor, single point] |  |
| CC(=O)Oc1cccc(N2C(=O)c3cccc4c([N+](=O)[O-])ccc(c34)C2=O)c1 | inconclusive: 35.5 µM [inhibitor, partial curve, poor fit] |  |
| COCCCNC(=O)CCC(=O)NCCCOC | inconclusive: 15.8 µM [inhibitor, full curve] |  |
| O=S(=O)(c1cccc2cnccc12)N1CCNCC1 | inconclusive: 44.7 µM [inhibitor, partial curve] |  |
